Source: patent US20160287658A1, “COMPOSITION FOR MOISTURIZING SKIN” (AMOREPACIFIC CORPORATION, priority 2015, published 2016)
Some entries share one result that the patent states for a list of compounds.

Test system: skin
Test: Evaluation of water content in skin (Corneometer)
Type: in vivo, human
Conditions: women in their 30s to 40s, topical application twice a day for 8 weeks

SMILES: C[N+](C)(C)CC(=O)[O-] [betaine, trimethylglycine]
- water content in skin increased as compared to the control group not treated with the active ingredient: 8-13%
